Values of other authors in patent US20230365568A1.

Experiments:
[1] = data from Alverez et al., 2020; cited from earlier work
[2] = data from Alverez et al., 2020; cited from earlier work; remark: listed apart in the source
[3] = data from Alverez et al., 2020; cited from earlier work; remark: listed apart in the source

For `O=c1c2cc(F)ccc2n2c(=S)[nH]nc2n1CCc1ccccc1`, the “PAMPA” value [1] is given as 77.0 ×10⁻⁶ cm/s and the “t1/2 (min, RLM)” value [2] is given as >30 min.

For `CCn1c(=O)c2cc(F)ccc2n2c(=S)[nH]nc12` [compound 63], the “t1/2 (min, RLM)” value [2] is given as >30 min and the “Solub.” value [3] is given as >39 µg/mL.

The match of structure and compound is tentative.
